Assay results taken from article PMC8222394 (Nature Communications, 2021).
Results are given in words; binding and its absence hold for the method and conditions named. In cells and extracts the contact can be indirect. Some results given as binding are weak or reduced against the parent protein; the word gives no strength.

Chains of the proteins cited; added tags and fusions are not shown.
UniProt O15393: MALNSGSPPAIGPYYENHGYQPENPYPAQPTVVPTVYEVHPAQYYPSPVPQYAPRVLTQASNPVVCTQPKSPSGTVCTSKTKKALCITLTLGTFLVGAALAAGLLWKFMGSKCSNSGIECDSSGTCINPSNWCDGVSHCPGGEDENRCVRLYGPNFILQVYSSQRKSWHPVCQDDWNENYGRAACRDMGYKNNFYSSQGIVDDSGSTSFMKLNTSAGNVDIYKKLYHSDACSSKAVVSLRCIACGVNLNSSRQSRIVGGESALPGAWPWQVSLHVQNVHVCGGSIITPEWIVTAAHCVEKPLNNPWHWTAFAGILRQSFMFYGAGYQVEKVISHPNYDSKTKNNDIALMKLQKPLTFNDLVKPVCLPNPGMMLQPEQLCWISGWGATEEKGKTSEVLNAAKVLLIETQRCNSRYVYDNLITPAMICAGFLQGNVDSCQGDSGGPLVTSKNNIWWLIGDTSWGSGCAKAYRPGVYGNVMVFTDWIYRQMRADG
UniProt Q9Y4B6: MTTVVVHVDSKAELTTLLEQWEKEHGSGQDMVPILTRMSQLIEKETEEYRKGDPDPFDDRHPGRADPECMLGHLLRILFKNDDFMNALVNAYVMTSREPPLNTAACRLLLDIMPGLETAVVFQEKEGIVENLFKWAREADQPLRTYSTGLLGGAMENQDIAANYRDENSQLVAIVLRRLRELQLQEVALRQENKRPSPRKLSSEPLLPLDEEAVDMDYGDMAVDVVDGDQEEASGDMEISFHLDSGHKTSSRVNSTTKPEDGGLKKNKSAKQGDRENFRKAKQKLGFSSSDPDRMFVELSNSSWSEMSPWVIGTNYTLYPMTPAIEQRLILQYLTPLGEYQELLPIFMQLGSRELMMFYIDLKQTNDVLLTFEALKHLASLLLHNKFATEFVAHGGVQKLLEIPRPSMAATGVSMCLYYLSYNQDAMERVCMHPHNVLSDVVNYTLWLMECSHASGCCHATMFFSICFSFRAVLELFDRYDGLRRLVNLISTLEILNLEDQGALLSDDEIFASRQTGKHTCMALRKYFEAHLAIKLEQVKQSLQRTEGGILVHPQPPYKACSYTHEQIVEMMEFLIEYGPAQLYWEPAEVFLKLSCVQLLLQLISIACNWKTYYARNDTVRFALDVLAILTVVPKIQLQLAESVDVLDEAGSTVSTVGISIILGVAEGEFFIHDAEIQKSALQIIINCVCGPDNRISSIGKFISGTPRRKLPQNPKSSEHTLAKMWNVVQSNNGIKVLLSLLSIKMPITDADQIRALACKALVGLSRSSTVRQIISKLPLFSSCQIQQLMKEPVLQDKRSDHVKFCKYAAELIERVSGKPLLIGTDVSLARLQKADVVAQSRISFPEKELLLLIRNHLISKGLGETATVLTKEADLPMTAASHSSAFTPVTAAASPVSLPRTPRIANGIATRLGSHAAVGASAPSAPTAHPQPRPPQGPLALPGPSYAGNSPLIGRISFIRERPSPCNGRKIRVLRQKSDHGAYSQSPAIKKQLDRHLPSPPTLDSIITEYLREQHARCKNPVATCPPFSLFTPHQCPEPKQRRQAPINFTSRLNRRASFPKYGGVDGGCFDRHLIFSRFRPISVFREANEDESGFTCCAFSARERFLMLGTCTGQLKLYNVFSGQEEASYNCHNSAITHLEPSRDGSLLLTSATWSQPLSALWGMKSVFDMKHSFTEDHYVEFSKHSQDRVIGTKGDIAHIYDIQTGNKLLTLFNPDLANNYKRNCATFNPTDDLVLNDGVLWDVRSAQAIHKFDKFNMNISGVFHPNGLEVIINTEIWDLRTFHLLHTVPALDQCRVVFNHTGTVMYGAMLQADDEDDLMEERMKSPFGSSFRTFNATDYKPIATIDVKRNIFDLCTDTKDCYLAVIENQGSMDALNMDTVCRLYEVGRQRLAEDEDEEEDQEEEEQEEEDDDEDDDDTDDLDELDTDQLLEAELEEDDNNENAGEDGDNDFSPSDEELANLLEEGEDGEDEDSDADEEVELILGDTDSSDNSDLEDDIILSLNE

Target: TMPRSS2 (human (endogenous in Beas-2B)) (UniProt O15393)
Assay: proximity ligation; Duolink proximity ligation assay in Beas-2B cells fixed with 4% paraformaldehyde and permeabilised with 0.5% Triton-X-100; anti-TMPRSS2 and anti-DCAF1 antibodies overnight; controls with antibody removal; confocal imaging

With “DDB1- and CUL4-associated factor 1 (DCAF1) (from UniProt Q9Y4B6 1-1507)” the binding was “binds”.
